Measurements reported in PubChem BioAssay AID1053208 (Peter MacCallum Cancer Centre, 2014).

Aim: 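Genes whose silencing cuts survival of bone tumour cells only with doxorubicin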 (primary screen)
Cell system: mouse osteosarcoma cells, early-passage culture from an engineered mouse model of fibroblastic bone tumour
Reagent: siRNA pool against mouse genes, 40 nM
Timing: about 120 h (48 h before drug, then 72 h with drug)
Challenge: doxorubicin 100 nM for 72 h, roughly 30-40% inhibitory dose
Read-out: 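Viability read as ATP luminescence after 72 h of 100 nM doxorubicin or none, duplicate wells averaged, scaled to non-targeting siRNA, then expressed as robust z-scores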
Direction: viability z-score with doxorubicin and doxorubicin viability vs non-targeting: higher = more viable cells under doxorubicin; viability z-score without drug: higher = more viable cells with knock-down alone; z-score of drug to no-drug ratio: higher = less drug sensitisation by knock-down
Hit rule: 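a pool counts as active when its viability z-score with doxorubicin is -2 or below and its z-score without drug lies between -2 and 2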
This is a random part of about 17,000 reagents. 788 of them (4.7%) count as active. 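Calls rest on z-score classes alone; an extra cut-off of viability at most 70% of control was not applied to them.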

| target | combined z-score class | viability z-score with doxorubicin | viability z-score without drug | z-score of drug to no-drug ratio | doxorubicin viability vs non-targeting | outcome |
| --- | --- | --- | --- | --- | --- | --- |
| 4933440M02Rik (RIKEN cDNA 4933440M02 gene) | no change with or without drug | -0.34 | -1.52 | 0.9 | 0.91 | inactive |
| Kcnh7 | no change with or without drug | 0.22 | -0.51 | 0.67 | 0.96 | inactive |
| Foxd1 (forkhead box D1) | no change with or without drug | 0.79 | 0.51 | 0.56 | 1.01 | inactive |
| Adnp (activity-dependent neuroprotective protein) | no change with or without drug | -1.12 | -1.01 | -0.45 | 0.84 | inactive |
| Spdye4a (speedy/RINGO cell cycle regulator family, member E4A) | no change with or without drug | -0.9 | 0.34 | -1.01 | 0.86 | inactive |
| Adora2b (adenosine A2b receptor) | no change with or without drug | -1.57 | -0.84 | -1.01 | 0.8 | inactive |
| Ca5a (carbonic anhydrase 5A) | no change with or without drug | -1.12 | -0.17 | -1.01 | 0.84 | inactive |
| Dcun1d4 (defective in cullin neddylation 1 domain containing 4) | no change with or without drug | 0 | 1.18 | -0.67 | 0.94 | inactive |
| Or8b36 (olfactory receptor family 8 subfamily B member 36) | no change with or without drug | -0.45 | -0.17 | -0.22 | 0.9 | inactive |
| Ndn (necdin, MAGE family member) | no change with or without drug | 1.01 | -0.51 | 1.57 | 1.03 | inactive |
| Or52h1 (olfactory receptor family 52 subfamily H member 1) | no change with or without drug | 0 | 0.67 | -0.34 | 0.94 | inactive |
| Zc3h7a (zinc finger CCCH type containing 7 A) | no change with or without drug | -0.22 | 1.18 | -0.9 | 0.92 | inactive |
| Clca3b (chloride channel accessory 3B) | no change with or without drug | -1.8 | -0.51 | -1.46 | 0.78 | inactive |
| Plekha7 (pleckstrin homology domain containing A7) | no change with or without drug | -0.11 | 0.17 | -0.11 | 0.93 | inactive |
| Ccnt1 (cyclin T1) | no change with or without drug | -0.11 | -0.84 | 0.56 | 0.93 | inactive |
| Slc29a4 | high cell count without drug only | 0.22 | 5.06 | -2.36 | 0.96 | inactive |
| Tmem208 (transmembrane protein 208) | no change with or without drug | 0.56 | 0.17 | 0.56 | 0.99 | inactive |
| 4732465J09RIK | no change with or without drug | -0.22 | 0.34 | -0.34 | 0.92 | inactive |
| Sirt1 (sirtuin 1) | no change with or without drug | -0.45 | -1.52 | 0.79 | 0.9 | inactive |
| 1810030O07Rik (RIKEN cDNA 1810030O07 gene) | high cell count with and without drug | 2.36 | 2.19 | 0.9 | 1.15 | inactive |

A portion from the list above, for reference:
| target | combined z-score class | viability z-score with doxorubicin | viability z-score without drug | z-score of drug to no-drug ratio | doxorubicin viability vs non-targeting | outcome |
| --- | --- | --- | --- | --- | --- | --- |
| Tmem208 (transmembrane protein 208) | no change with or without drug | 0.56 | 0.17 | 0.56 | 0.99 | inactive |
| 4732465J09RIK | no change with or without drug | -0.22 | 0.34 | -0.34 | 0.92 | inactive |
